Measured values as given in paper PMC5253420.

Tests used:
[1] = biological target: T1, HK2 T473D (phospho-mimetic mutant), mouse, in pcDNA4-Myc/His (mouse) (UniProt O08528); assay: co-IP; 293T cells transfected with WT, T473A or T473D HK2, control condition; lysates (1% Triton X-100 lysis buffer) precipitated with the HK2 antibody and protein A/G agarose at 4 °C overnight; endogenous Akt detected by Western blot
T1 sequence: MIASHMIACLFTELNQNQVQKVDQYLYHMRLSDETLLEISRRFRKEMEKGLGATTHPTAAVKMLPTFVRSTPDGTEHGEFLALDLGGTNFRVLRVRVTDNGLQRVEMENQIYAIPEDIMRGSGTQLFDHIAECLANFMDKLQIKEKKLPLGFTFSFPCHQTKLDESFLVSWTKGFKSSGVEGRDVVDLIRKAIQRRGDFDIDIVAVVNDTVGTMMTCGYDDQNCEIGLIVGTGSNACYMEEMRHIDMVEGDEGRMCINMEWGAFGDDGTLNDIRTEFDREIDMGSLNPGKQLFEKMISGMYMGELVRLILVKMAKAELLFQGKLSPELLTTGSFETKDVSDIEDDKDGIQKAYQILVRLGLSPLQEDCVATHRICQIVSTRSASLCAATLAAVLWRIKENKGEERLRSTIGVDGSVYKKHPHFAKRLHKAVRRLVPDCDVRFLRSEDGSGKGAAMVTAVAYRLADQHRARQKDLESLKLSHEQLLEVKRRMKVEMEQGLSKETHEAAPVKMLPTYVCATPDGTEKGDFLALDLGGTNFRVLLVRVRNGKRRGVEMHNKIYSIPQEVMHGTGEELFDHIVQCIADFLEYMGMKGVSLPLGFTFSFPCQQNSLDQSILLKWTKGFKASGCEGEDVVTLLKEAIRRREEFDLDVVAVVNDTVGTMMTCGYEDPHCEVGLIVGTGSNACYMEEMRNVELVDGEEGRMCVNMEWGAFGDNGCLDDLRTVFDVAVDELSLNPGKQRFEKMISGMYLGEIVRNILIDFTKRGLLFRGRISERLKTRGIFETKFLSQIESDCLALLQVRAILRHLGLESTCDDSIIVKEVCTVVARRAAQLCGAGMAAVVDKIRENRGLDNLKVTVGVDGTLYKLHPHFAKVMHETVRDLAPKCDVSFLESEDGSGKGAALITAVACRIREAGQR

[2] = biological target: T2, HK2 T473A (phosphorylation-deficient mutant), mouse, in pcDNA4-Myc/His (mouse) (UniProt O08528); assay: as above
T2 sequence: T1 sequence with D473A

[3] = biological target: T3, endogenous hexokinase 2 (HK2), SW480 cells (human (endogenous in SW480)) (UniProt P52789); assay: condition: only cells treated with Akt inhibitor VIII (1 μM, 16 h); co-IP; SW480 cells treated with Akt-VIII for 16 h, fractionated into cytosolic and mitochondrial fractions; precipitated with the HK2 antibody; blots for PHLPP1, PHLPP2, HK2 and Akt
T3 sequence: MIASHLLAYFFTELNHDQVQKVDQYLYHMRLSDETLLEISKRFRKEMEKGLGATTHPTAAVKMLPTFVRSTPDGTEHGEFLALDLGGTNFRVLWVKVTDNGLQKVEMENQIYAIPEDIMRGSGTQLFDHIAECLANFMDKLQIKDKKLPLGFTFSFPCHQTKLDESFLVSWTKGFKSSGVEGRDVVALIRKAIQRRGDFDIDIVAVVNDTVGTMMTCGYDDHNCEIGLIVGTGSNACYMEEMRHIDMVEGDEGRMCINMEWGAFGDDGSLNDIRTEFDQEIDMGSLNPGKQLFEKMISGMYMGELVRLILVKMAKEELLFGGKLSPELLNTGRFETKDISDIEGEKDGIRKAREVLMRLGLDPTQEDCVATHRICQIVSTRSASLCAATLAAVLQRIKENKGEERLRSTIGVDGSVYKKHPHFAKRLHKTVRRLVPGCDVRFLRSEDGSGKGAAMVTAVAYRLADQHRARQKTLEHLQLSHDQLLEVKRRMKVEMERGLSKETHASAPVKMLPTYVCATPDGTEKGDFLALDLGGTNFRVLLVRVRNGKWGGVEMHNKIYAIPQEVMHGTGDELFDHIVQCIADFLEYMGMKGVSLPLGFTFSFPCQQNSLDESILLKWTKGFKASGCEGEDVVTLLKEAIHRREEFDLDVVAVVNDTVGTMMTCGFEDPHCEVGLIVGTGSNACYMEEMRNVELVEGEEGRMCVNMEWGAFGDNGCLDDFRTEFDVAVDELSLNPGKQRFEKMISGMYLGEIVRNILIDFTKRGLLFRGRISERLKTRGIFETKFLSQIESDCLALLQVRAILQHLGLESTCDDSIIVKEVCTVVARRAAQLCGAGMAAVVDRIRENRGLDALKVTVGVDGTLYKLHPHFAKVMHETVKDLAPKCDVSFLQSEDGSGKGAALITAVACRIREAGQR

[4] = biological target: T3, endogenous hexokinase 2 (HK2), SW480 cells (human (endogenous in SW480)); assay: co-IP; SW480 cells under regular growth condition, mitochondrial fraction; precipitated with the HK2 antibody (mock: protein A/G beads alone); blots for PHLPP1, PHLPP2, HK2 and Akt
[5] = biological target: T3, endogenous hexokinase 2 (HK2), SW480 cells (human (endogenous in SW480)); assay: co-IP; SW480 cells under regular growth condition, cytosolic fraction; precipitated with the HK2 antibody (mock: protein A/G beads alone); blots for PHLPP1, PHLPP2, HK2 and Akt
[6] = biological target: T1, HK2 T473D (phospho-mimetic mutant), mouse, in pcDNA4-Myc/His (mouse); assay: co-IP; 293T cells transfected with HA-PHLPP1 together with WT, T473A or T473D HK2 and Flag-Akt; HK2 antibody precipitate blotted for PHLPP1, HK2 and Akt
[7] = biological target: T2, HK2 T473A (phosphorylation-deficient mutant), mouse, in pcDNA4-Myc/His (mouse); assay: as above

In the case of “endogenous Akt (293T cells) (human (endogenous in 293T)) (enzyme)”, the binding [1] is reported as “no binding” and the binding [2] is reported as “no binding”.

For “endogenous Akt (SW480 cells) (human (endogenous in SW480)) (enzyme)”, the binding [3] was “no binding”, the binding [4] was “binds” and the binding [5] was “no binding (only in the cytosolic fraction)”.

In the case of Flag-Akt (enzyme), the binding [6] is reported as “binds weakly” and the binding [7] is reported as “binds weakly”.

Changes are numbered by the printed parent chain. These are yes or no findings as the source states them, for the method shown. Binding seen in cells or lysates may run through a third protein. For some of these results: Binding can be weak; no strength is given. For some of these results: Where a sequence is shown, tags or fusion partners need not be part of it.
